Experimental data taken from the supplement of paper PMC12823440, “Inhibitors supercharge kinase turnover through native proteolytic circuits” (Nature, 2025).
Structures can show the parent of a compound that is named as a salt. Some of the results follow. The calls rarely recur for the same compound in another form.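 In K562 cells expressing nanoluciferase-fused kinases, luminescence was recorded at 4 h intervals between 2 and 18 h, normalized as percent of control with DMSO at 100% and a positive control at 0%. A significant (2 sigma) signal drop marks a time point as decreased. The authors' rule for a hit is not shown and takes in more than the number of time points.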

Amino acid sequences for entries named in this document (tags omitted). A change or cut given only in a name is not applied to a line headed by its entry.
UniProt O15530: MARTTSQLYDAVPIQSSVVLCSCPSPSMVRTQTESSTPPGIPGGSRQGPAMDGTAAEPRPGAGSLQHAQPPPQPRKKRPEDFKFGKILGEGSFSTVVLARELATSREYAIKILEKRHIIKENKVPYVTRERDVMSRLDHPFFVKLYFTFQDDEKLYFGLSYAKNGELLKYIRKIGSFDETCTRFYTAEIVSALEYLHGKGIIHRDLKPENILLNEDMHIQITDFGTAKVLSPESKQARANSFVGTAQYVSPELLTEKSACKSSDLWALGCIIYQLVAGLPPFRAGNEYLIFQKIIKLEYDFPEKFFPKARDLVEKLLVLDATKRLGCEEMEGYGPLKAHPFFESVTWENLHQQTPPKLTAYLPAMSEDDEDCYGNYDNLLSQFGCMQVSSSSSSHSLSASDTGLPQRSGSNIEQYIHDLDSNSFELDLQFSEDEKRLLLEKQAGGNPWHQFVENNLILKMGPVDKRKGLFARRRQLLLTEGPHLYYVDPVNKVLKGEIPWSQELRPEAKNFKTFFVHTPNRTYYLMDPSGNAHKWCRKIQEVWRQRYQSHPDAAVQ
UniProt P42356, whole entry, looked up: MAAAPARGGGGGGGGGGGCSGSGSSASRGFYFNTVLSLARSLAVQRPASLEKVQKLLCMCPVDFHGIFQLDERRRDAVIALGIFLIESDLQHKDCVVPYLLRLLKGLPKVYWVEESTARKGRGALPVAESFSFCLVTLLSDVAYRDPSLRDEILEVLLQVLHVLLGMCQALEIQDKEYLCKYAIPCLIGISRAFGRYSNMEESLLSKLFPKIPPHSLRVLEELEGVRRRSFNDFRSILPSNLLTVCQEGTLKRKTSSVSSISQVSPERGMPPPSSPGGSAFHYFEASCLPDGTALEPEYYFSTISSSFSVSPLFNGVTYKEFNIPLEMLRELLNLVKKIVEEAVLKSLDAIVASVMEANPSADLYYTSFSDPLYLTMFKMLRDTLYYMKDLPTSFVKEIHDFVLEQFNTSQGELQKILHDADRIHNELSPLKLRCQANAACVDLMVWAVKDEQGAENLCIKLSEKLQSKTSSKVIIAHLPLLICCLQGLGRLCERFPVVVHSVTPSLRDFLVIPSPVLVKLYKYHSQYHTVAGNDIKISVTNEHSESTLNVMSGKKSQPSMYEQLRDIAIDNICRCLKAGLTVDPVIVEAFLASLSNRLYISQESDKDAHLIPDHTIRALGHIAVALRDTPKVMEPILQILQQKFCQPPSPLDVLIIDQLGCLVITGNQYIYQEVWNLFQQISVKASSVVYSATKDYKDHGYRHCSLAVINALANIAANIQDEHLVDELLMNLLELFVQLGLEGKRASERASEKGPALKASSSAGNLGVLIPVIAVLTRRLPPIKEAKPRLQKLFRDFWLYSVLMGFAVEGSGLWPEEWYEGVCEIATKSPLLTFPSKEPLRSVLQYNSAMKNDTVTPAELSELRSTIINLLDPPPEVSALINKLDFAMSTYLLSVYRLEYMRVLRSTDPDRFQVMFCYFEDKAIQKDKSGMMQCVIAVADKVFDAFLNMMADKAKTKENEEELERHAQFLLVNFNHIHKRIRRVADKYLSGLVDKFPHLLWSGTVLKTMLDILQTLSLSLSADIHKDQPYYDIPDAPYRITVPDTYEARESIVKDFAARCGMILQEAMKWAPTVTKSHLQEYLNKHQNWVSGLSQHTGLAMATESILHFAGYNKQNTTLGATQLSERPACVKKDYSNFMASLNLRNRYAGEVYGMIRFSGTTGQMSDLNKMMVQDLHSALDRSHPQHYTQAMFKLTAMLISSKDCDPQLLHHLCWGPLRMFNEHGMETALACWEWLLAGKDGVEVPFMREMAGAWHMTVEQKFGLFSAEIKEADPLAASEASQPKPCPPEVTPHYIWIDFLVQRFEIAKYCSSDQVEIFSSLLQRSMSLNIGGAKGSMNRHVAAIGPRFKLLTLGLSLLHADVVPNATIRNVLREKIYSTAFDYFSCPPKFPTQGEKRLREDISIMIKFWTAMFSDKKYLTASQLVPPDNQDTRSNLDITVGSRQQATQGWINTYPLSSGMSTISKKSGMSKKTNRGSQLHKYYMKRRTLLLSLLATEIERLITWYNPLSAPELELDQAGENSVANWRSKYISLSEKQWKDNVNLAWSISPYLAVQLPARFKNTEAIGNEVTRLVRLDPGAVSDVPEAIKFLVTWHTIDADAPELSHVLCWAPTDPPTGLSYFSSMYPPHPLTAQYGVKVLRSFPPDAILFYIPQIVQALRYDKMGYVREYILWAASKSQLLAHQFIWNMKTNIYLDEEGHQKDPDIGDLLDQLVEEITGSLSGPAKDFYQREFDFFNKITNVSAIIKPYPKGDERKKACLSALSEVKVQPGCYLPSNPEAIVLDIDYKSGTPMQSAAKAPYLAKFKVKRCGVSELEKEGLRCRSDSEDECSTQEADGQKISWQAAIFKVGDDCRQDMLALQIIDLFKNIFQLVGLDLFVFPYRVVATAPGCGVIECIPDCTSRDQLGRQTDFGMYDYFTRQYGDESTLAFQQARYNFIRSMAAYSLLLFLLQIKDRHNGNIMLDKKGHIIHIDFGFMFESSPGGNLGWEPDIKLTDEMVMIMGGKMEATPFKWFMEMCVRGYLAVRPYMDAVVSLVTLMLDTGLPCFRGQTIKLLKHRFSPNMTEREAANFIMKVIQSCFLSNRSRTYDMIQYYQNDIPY
UniProt Q9UBF8: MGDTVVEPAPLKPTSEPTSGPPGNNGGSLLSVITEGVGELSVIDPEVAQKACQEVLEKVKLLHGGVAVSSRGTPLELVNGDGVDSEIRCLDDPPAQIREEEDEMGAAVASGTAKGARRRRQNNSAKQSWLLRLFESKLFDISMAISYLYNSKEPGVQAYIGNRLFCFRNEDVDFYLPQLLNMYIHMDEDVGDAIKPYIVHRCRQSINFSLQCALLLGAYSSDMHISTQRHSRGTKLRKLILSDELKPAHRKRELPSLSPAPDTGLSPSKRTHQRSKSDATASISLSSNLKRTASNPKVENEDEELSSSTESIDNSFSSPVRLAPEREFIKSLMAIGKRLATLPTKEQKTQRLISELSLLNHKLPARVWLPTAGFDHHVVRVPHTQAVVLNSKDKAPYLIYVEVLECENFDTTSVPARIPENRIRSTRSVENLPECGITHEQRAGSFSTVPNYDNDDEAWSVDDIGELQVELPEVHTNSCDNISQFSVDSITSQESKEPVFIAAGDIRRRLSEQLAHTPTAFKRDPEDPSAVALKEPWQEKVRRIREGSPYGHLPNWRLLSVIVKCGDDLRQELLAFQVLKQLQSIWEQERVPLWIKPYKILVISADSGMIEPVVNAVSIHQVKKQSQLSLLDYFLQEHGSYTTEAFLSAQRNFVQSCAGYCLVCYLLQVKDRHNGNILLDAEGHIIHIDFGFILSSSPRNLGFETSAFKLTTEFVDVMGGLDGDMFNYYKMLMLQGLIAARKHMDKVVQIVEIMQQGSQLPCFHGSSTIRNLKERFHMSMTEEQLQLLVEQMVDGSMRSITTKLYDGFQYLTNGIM
UniProt P53350, whole entry: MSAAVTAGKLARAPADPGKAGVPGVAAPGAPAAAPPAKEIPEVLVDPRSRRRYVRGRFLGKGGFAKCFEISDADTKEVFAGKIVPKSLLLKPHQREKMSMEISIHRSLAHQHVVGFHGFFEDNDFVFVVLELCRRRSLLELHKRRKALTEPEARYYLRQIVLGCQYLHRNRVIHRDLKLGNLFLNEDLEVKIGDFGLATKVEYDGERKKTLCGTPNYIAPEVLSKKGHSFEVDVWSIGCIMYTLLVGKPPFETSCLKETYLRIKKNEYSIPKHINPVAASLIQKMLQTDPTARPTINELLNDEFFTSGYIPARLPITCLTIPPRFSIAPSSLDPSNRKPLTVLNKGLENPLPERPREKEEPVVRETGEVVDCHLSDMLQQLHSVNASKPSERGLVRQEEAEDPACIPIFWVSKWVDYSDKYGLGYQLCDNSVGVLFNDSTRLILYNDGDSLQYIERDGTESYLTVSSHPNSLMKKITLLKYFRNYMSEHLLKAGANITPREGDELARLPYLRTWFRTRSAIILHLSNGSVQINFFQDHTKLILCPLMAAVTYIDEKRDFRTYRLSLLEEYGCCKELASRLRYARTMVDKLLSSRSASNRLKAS
UniProt Q13131: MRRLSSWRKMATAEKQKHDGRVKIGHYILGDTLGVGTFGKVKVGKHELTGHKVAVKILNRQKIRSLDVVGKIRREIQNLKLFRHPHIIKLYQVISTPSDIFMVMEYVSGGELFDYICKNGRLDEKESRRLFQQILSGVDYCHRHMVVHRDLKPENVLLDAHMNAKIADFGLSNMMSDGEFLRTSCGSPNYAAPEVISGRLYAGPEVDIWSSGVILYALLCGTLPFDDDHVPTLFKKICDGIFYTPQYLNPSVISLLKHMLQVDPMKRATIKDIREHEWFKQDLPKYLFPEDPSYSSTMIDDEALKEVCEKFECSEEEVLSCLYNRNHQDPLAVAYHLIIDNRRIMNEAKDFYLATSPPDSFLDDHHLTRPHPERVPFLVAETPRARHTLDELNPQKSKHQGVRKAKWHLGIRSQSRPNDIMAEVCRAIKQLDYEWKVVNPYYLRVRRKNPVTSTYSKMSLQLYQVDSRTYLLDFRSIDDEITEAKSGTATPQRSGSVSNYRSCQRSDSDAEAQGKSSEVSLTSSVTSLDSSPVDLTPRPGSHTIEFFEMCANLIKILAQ
UniProt Q05397, whole entry, looked up: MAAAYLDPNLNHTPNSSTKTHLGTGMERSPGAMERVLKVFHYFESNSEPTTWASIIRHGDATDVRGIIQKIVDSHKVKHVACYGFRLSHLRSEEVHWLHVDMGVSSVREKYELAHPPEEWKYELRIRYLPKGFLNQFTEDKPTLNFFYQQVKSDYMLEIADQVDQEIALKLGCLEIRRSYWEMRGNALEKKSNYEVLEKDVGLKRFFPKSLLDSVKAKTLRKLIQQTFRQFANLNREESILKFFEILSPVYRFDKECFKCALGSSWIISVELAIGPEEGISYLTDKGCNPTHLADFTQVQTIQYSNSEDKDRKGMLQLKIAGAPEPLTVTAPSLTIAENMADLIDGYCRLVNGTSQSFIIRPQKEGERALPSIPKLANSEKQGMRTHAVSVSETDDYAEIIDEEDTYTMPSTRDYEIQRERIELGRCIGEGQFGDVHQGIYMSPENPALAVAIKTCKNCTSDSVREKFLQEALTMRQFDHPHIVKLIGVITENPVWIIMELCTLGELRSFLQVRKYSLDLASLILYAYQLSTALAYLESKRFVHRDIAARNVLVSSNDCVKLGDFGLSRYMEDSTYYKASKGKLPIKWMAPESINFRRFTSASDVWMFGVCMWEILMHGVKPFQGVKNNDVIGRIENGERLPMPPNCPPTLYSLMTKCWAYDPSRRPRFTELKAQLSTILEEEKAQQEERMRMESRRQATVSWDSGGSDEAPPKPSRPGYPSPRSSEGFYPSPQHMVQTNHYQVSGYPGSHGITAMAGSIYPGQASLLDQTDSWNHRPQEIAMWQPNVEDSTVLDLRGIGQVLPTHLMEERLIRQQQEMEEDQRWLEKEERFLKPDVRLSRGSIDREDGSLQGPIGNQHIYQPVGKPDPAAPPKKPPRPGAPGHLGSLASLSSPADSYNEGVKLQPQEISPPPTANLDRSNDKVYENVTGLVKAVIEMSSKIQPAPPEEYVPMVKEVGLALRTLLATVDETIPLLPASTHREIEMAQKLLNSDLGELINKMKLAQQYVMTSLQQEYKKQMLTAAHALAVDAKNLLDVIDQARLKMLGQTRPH

What was measured:
Test in all cases: kinase-Nluc reporter destabilization hit call (1 = scored as downregulated) (binary); higher = compound decreases kinase abundance
Settings in all cases: K562; 2-18 h
PDPK1 = PDPK1 (UniProt O15530)
PIK4CA = PIK4CA (UniProt P42356)
PIK4CB = PIK4CB (UniProt Q9UBF8)
PLK1 = PLK1 (UniProt P53350)
PRKAA1 = PRKAA1 (UniProt Q13131)
PRKCA = PRKCA (UniProt P17252)
PTK2 = PTK2 (UniProt Q05397)
PTK2B = PTK2B (UniProt Q14289)
RAF1 = RAF1 (UniProt P04049)
[1] = biological target: RAF1_S257L (clone: RAF1_mut) (UniProt P04049)

Measured: kinase-Nluc reporter destabilization hit call

CCOc1ccc(C(=O)Nc2ncc([N+](=O)[O-])s2)cc1 (10 µM)
inactive: PDPK1 = 0 | PIK4CA 0 | PIK4CB 0 | PLK1 = 0 | PRKAA1 = 0 | PRKCA 0 | PTK2 = 0 | PTK2B 0 | RAF1 = 0 | [1] 0

O=C(O)CCc1ccc(O)c(O)c1 [Dihydrocaffeic acid] (10 µM)
inactive: PDPK1 = 0 | PIK4CA 0 | PIK4CB 0 | PLK1 = 0 | PRKAA1 = 0 | PRKCA 0 | PTK2 = 0 | PTK2B 0 | RAF1 = 0 | [1] 0

C=CC(=O)Nc1ccc(CN(C(=O)Nc2c(Cl)c(OC)cc(OC)c2Cl)c2cc(Nc3ccc(N4CCN(C)CC4)cc3)ncn2)cc1 (10 µM)
inactive: PDPK1 = 0 | PIK4CA 0 | PIK4CB 0 | PLK1 = 0 | PRKAA1 = 0 | PRKCA 0 | PTK2 = 0 | PTK2B 0 | RAF1 = 0 | [1] 0

CN1CCN(c2ccc(C(=O)Nc3cc(-c4cccc(NS(=O)(=O)c5ccccc5)c4)[nH]n3)cc2)CC1 [BPR1J-097 Hydrochloride] (2.5 µM)
inactive: PDPK1 = 0 | PIK4CA 0 | PIK4CB 0 | PLK1 = 0 | PRKAA1 = 0 | PRKCA 0 | PTK2 = 0 | PTK2B 0 | RAF1 = 0 | [1] 0
